# Experimental data published in the supplement of paper PMC6331611.
# ± gives the standard deviation of the averaged measurements. The full ranking holds about 1,600 compounds; the median of “normalized growth (OD600, IQM-normalized) in LPM” is about 1, and the lowest 2% start at about 0.014. The list shows a part of the results.
# Test system: Salmonella enterica serovar Typhimurium SL1344
# Experiment: normalized growth (OD600, IQM-normalized) in LPM (fraction of plate interquartile mean); higher = more bacterial growth (less inhibition)
# Settings: LPM pH 5.8; 10 µM; 16 h
row,Structure (SMILES),normalized growth
1,COP(=S)(OC)Oc1ccc(SC)c(C)c1,0.918 ± 0.027
2,O=c1[nH]c2ccccc2n1CCCN1CCC(n2c(=O)[nH]c3cc(Cl)ccc32)CC1,1.02 ± 0.14
3,O=C([O-])c1ccccc1-c1c2cc(Br)c(=O)cc-2oc2[c]([Hg+])c([O-])c(Br)cc12.[Na+].[Na+].[OH-],1.11 ± 0.062
4,CC(C)[N+](C)(CCC(C(N)=O)(c1ccccc1)c1ccccc1)C(C)C,1.02 ± 0.024
5,C#C[C@]1(O)CC[C@H]2[C@@H]3CCC4=CC(=O)CC[C@]4(C)[C@H]3CC[C@@]21C,1.11 ± 0.029
6,CC(C)CC(N(C)C)C1(c2ccc(Cl)cc2)CCC1 (stereo not given),1.03 ± 0.036
7,O=C([O-])Cc1ccccc1.[Na+],1.14 ± 0.026
8,COc1ccc2c(c1)[C@]13CCCC[C@@H]1[C@H](C2)N(C)CC3,0.957 ± 0.1
9,C=C[C@H]1CN2CC[C@H]1C[C@H]2[C@H](O)c1ccnc2ccccc12,1.01 ± 0.043
10,C=CC[C@]1(O)CC[C@H]2[C@@H]3CCC4=CC(=O)CCC4=C3C=C[C@@]21C,1 ± 0.02
11,CC(Cc1ccc(O)cc1)NCC(O)c1cc(O)cc(O)c1 (stereo not given),1.087 ± 0.0059
12,C=CCN=C=S,1.02 ± 0.02
13,C=C[C@H]1CN2CC[C@H]1C[C@@H]2[C@@H](O)c1ccnc2ccccc12,0.962 ± 0.079
14,C1CCc2nnnn2CC1,1.05 ± 0.015
15,O=C1C=C2C=C[C@@H]3C[C@@]2(O1)[C@H]1CCCCN31,1.36 ± 0.46
16,Oc1noc2c1CCNC2,0.948 ± 0.041
17,CCCC(C)C1(CC)C(=O)NC(=S)NC1=O (stereo not given),1.01 ± 0.054
18,CC(C)=CC1C(C(=O)OCc2cccc(Oc3ccccc3)c2)C1(C)C (stereo not given),0.894 ± 0.04
19,NC(=O)C[S@@+]([O-])C(c1ccccc1)c1ccccc1,1.07 ± 0.036
20,C[CH2][Hg][S]c1ccccc1C(=O)[O-].[Na+],0.00984 ± 0.0003

row,Structure (SMILES),normalized growth
1,Nc1ccncc1,0.827 ± 0.09
2,O=C(O[C@H]1C[C@H]2CC[C@@H](C1)[N+]21CCCC1)C(O)(c1ccccc1)c1ccccc1,0.916 ± 0.024
3,COc1ccc(C(=O)N2CCCC2=O)cc1,0.999 ± 0.015
4,O=C(O)CCCc1ccc(N(CCCl)CCCl)cc1,1.1 ± 0.051
5,CC(C)(O)C(Cl)(Cl)Cl,1 ± 0.032
6,Oc1cccc2cccnc12,1.032 ± 0.0034
7,CCCN1C[C@H](CSC)C[C@@H]2c3cccc4[nH]cc(c34)C[C@H]21,1.02 ± 0.024
8,N.N.[Cl][Pt][Cl],1.1 ± 0.045
9,CNc1ccc(C(=O)CC(O)CCC(C)C2OC(=O)CC(O)CC(=O)CC(O)CC(O)CC(O)CC(O)CC3(O)CC(O)C(C(=O)OC)C(CC(O[C@@H]4O[C@H](C)[C@@H](O)[C@H](N)[C@@H]4O)/C=C/C=C/C=C/C=C/C=C/C=C/C=C/C2C)O3)cc1.COC(=O)C1C(O)CC2(O)CC(O)CC(O)CC(O)CC(O)CC(=O)CC(O)CC(=O)OC(C(C)CCC(O)CC(=O)c3ccc(N)cc3)C(C)/C=C/C=C/C=C/C=C/C=C/C=C/C=C/C(O[C@@H]3O[C@H](C)[C@@H](O)[C@H](N)[C@@H]3O)CC1O2 (stereo not given in full),1.06 ± 0.03
10,Cc1ncc(CNC(=O)N(CCCl)N=O)c(N)n1,0.807 ± 0.044
11,NCCc1cc(O)c(O)cc1O,1.08 ± 0.043
12,O=C1C[C@@H]2OCC=C3CN4CC[C@]56c7ccccc7N1[C@H]5[C@H]2[C@H]3C[C@H]46,1.07 ± 0.019
13,N#Cc1nn(-c2c(Cl)cc(C(F)(F)F)cc2Cl)c(N)c1[S+]([O-])C(F)(F)F (stereo not given),1.15 ± 0.017
14,CC(CCc1ccccc1)NC(C)C(O)c1ccc(O)cc1 (stereo not given),0.974 ± 0.044
15,COc1cccc(C2(O)CCCCC2CN(C)C)c1 (stereo not given),0.904 ± 0.038
16,CC(=O)OC1CN2CCC1CC2 (stereo not given),0.925 ± 0.072
17,C[N+](C)(C)CCCCCCCCCC[N+](C)(C)C,1.07 ± 0.079
18,c1ccc2nc(N3CCNCC3)ccc2c1,1.07 ± 0.047
19,CN1C[C@H](C(=O)N[C@]2(C)O[C@@]3(O)[C@@H]4CCCN4C(=O)[C@H](Cc4ccccc4)N3C2=O)C[C@@H]2c3cccc4[nH]cc(c34)C[C@H]21,0.935 ± 0.021
20,C[N+]1(C)[C@@H]2CC[C@H]1C[C@@H](OC(=O)C(CO)c1ccccc1)C2 (stereo not given in full),1.09 ± 0.038

# 12 compounds from above, ordered by number of heavy atoms, ascending:
row,Structure (SMILES),normalized growth
1,Nc1ccncc1,0.827 ± 0.09
5,CC(C)(O)C(Cl)(Cl)Cl,1 ± 0.032
6,Oc1cccc2cccnc12,1.032 ± 0.0034
16,CC(=O)OC1CN2CCC1CC2 (stereo not given),0.925 ± 0.072
3,COc1ccc(C(=O)N2CCCC2=O)cc1,0.999 ± 0.015
17,C[N+](C)(C)CCCCCCCCCC[N+](C)(C)C,1.07 ± 0.079
15,COc1cccc(C2(O)CCCCC2CN(C)C)c1 (stereo not given),0.904 ± 0.038
7,CCCN1C[C@H](CSC)C[C@@H]2c3cccc4[nH]cc(c34)C[C@H]21,1.02 ± 0.024
12,O=C1C[C@@H]2OCC=C3CN4CC[C@]56c7ccccc7N1[C@H]5[C@H]2[C@H]3C[C@H]46,1.07 ± 0.019
13,N#Cc1nn(-c2c(Cl)cc(C(F)(F)F)cc2Cl)c(N)c1[S+]([O-])C(F)(F)F (stereo not given),1.15 ± 0.017
2,O=C(O[C@H]1C[C@H]2CC[C@@H](C1)[N+]21CCCC1)C(O)(c1ccccc1)c1ccccc1,0.916 ± 0.024
19,CN1C[C@H](C(=O)N[C@]2(C)O[C@@]3(O)[C@@H]4CCCN4C(=O)[C@H](Cc4ccccc4)N3C2=O)C[C@@H]2c3cccc4[nH]cc(c34)C[C@H]21,0.935 ± 0.021
